Values quoted from earlier work as cited in patent US10568868B2, “Methods and compositions for treating metabolic reprogramming disorders” (THE JOHNS HOPKINS UNIVERSITY, priority 2015, dated 2020).
Some entries share one result that the patent states for a list of compounds. At least one structure is not confirmed: it was looked up by name or label, or the drawing left a doubt.

Tested on: Balb/c to C57BL/6 skin allograft
Details: literature (Gorski & Wasik 1990); cited from earlier work

**Q.** Which “MST of fully allogeneic skin allograft, previously reported” value does the source give for `C=CC[C@@H]1/C=C(\C)C[C@H](C)C[C@H](OC)[C@H]2O[C@@](O)(C(=O)C(=O)N3CCCC[C@H]3C(=O)O[C@H](/C(C)=C/[C@@H]3CC[C@@H](O)[C@H](OC)C3)[C@H](C)[C@@H](O)CC1=O)[C@H](C)C[C@@H]2OC` [FK506] here?
**A.** The value was “less than 20 days”.
